Measurements reported in patent publication US20100292200A1, “Methods for Modulating Apoptosis in Platelets” (The Walter and Eliza Hall Institute of Medical Research, priority 2006, published 2010).
These are yes or no findings as the source states them, for the method shown. In cells and extracts the contact can be indirect. Some results given as binding are weak or reduced against the parent protein; the word gives no strength. For part of these data: Where a sequence is shown, tags or fusion partners need not be part of it.

The chains behind the UniProt entries cited, without tags or fusion partners. Where a name states a change or a piece, a line headed by the entry shows the natural chain unless it says otherwise.
UniProt Q07812: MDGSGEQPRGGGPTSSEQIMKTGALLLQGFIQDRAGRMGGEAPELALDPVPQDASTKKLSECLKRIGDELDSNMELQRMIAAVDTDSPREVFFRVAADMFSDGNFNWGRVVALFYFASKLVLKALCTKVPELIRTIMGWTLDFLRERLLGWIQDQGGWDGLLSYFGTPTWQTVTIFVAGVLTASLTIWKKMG
UniProt Q64373: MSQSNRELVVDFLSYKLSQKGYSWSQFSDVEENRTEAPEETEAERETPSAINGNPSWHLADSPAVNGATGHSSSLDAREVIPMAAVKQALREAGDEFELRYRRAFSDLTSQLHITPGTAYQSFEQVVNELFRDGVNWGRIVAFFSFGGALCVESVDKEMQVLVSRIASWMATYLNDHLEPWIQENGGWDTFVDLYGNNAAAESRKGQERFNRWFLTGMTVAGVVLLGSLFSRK

Key:
[1] = biological target: HA-tagged human Bax (human) (UniProt Q07812); assay: co-immunoprecipitation, 293T cells, FIG. 3B
[2] = biological target: T1, HA-tagged human Bak (human) (UniProt Q16611); assay: co-immunoprecipitation, 293T cells, FIG. 3B
T1 sequence: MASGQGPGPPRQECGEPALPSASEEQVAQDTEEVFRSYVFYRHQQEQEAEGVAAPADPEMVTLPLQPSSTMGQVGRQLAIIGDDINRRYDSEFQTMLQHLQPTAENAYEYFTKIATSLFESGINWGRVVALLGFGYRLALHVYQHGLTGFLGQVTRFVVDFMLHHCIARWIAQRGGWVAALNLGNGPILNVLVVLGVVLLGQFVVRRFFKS

[3] = biological target: T1, HA-tagged human Bak (human); assay: co-immunoprecipitation from Triton X-100 lysates of 293T cells co-expressing FLAG-Bcl-xL and HA-Bak
[4] = biological target: HA-tagged human Bax (human) (UniProt Q07812); assay: co-immunoprecipitation from Triton X-100 lysates of 293T cells co-expressing FLAG-Bcl-xL and HA-Bax

binding [1] | binding [2] | binding [3] | binding [4] | Substance
binds | binds | binds | binds | FLAG-tagged mouse Bcl-xL Plt16 (I182N) mutant (from UniProt Q64373 1-233)
binds | binds | binds | binds | FLAG-tagged mouse Bcl-xL Plt20 (Y15C) mutant (from UniProt Q64373 1-233)
 | binds |  |  | FLAG-tagged wild type mouse Bcl-xL (from UniProt Q64373 1-233)
